# In the supplement of paper PMC7666118:
# Chains of the proteins cited; added tags and fusions are not shown. Lines headed by an entry give the natural chain unless they say otherwise; changes in a name come on top.
# UniProt Q9H0R3: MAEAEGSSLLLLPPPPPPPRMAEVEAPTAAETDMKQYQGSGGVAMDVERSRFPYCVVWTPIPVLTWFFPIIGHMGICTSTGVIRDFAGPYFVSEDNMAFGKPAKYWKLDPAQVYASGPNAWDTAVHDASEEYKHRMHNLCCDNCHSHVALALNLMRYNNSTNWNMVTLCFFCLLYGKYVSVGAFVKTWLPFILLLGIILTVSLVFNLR
# UniProt Q96CG3: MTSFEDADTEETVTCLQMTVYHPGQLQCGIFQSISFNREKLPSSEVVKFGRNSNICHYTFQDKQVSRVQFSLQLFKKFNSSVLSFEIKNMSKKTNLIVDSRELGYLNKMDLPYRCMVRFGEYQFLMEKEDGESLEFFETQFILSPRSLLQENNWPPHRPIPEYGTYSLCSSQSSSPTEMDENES
# UniProt O14763, whole entry: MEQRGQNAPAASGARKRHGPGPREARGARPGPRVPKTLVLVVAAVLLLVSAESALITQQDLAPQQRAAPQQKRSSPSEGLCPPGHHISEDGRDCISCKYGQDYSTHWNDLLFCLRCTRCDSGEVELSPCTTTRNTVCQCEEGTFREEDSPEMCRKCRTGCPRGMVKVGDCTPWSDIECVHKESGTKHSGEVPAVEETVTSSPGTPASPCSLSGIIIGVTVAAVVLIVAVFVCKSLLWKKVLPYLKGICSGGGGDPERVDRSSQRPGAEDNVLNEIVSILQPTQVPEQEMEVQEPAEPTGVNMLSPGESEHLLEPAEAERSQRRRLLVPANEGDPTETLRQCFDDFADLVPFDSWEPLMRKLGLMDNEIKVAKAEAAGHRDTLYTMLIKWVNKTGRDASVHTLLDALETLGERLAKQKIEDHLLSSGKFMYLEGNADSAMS
# UniProt Q9NUY8: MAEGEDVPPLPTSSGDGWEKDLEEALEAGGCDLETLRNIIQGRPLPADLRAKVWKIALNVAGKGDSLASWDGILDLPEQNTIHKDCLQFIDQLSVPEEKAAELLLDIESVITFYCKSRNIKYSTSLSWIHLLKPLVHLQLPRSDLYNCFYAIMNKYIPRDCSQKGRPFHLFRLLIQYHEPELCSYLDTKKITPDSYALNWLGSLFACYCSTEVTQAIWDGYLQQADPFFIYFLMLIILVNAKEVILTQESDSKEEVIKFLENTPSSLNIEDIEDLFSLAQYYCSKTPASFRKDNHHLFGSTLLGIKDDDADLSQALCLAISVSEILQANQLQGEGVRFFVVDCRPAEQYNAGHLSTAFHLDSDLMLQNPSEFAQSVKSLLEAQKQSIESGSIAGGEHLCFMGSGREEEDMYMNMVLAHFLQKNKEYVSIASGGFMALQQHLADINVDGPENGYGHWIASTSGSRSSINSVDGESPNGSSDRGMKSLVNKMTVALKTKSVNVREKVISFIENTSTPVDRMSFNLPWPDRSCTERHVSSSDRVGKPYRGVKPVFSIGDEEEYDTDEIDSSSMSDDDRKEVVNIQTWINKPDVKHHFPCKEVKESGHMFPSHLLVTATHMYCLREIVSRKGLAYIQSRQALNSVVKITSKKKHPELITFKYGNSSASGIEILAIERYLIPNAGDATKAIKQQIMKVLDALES
# UniProt Q99426: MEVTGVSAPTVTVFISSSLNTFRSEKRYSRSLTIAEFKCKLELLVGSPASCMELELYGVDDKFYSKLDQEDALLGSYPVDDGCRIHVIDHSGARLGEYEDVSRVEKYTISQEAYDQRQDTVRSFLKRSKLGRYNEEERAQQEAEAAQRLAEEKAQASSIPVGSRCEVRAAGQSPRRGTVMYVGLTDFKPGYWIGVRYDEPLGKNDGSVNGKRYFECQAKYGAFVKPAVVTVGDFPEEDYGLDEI
# UniProt P51580: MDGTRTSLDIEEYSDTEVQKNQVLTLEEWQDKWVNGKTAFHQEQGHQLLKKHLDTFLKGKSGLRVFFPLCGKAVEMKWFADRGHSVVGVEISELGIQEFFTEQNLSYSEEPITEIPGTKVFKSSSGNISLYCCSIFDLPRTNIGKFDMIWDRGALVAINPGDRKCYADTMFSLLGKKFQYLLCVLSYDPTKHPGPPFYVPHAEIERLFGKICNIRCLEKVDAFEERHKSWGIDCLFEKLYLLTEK
# UniProt Q8N511: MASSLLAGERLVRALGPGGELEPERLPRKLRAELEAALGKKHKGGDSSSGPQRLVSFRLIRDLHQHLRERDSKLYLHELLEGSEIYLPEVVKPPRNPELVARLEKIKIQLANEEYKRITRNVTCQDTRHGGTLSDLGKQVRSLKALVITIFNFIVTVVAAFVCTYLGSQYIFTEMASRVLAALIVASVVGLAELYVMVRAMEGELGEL
# UniProt Q9ULP9: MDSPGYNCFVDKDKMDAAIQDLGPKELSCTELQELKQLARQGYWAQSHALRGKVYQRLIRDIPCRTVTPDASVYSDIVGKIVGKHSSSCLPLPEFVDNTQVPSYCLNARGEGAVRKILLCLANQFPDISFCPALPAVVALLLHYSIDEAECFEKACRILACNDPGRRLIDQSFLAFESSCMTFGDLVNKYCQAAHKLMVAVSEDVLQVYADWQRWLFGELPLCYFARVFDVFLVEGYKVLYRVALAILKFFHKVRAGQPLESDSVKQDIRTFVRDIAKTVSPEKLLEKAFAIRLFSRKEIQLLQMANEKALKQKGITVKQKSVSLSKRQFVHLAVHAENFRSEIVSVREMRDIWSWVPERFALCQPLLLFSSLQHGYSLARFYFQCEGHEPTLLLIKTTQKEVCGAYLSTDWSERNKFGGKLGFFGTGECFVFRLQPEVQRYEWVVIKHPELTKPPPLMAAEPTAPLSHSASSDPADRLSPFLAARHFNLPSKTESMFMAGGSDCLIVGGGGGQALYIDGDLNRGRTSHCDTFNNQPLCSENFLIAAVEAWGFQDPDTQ
# UniProt Q96FV9: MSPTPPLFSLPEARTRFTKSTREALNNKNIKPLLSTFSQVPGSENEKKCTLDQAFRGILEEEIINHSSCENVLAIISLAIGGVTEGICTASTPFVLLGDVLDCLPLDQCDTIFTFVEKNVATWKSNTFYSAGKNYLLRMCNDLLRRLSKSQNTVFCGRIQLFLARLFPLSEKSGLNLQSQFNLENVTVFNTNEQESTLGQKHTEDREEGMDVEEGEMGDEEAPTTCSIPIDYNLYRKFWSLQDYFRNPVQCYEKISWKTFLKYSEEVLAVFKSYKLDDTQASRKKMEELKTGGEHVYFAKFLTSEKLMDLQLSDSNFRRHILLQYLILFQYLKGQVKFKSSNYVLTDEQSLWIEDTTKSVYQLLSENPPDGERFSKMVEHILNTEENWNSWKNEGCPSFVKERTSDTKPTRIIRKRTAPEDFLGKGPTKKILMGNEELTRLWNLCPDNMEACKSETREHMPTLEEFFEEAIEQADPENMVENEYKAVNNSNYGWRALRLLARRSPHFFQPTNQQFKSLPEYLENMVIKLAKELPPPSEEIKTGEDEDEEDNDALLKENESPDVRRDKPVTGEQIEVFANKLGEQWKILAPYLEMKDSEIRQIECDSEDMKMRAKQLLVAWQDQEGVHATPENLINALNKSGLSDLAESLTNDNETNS
# UniProt Q96BS2: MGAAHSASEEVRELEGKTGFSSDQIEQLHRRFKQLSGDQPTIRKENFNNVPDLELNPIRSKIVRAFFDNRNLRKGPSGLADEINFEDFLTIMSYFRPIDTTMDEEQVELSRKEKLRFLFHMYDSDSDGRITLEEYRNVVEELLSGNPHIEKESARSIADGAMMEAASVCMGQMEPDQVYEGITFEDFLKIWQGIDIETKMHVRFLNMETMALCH
# UniProt Q8N5G2: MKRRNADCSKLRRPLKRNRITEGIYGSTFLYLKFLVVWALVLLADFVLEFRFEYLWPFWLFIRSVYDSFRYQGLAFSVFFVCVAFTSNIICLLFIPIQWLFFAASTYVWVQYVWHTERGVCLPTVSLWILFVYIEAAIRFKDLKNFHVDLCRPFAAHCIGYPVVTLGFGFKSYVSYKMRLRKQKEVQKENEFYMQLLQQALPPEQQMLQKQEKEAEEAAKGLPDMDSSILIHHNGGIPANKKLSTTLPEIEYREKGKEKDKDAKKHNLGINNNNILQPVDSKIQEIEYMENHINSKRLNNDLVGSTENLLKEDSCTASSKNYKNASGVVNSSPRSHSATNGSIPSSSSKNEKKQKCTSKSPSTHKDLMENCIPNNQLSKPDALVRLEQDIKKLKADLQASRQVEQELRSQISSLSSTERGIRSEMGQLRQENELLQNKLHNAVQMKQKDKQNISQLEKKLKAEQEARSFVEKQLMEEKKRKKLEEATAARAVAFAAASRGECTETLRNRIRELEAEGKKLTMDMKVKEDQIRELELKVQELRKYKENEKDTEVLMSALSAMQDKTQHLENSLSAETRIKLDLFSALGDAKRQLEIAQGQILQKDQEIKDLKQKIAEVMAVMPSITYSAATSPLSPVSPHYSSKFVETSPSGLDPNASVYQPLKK
# UniProt Q9Y6I9: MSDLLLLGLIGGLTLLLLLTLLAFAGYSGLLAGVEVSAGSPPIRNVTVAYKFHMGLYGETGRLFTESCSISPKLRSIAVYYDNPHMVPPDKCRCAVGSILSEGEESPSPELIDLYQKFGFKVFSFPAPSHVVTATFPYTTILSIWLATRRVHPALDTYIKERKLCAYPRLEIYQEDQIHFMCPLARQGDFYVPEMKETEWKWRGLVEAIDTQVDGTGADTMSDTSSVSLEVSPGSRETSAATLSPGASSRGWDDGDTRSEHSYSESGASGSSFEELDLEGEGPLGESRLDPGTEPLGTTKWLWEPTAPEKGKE
# UniProt Q13641: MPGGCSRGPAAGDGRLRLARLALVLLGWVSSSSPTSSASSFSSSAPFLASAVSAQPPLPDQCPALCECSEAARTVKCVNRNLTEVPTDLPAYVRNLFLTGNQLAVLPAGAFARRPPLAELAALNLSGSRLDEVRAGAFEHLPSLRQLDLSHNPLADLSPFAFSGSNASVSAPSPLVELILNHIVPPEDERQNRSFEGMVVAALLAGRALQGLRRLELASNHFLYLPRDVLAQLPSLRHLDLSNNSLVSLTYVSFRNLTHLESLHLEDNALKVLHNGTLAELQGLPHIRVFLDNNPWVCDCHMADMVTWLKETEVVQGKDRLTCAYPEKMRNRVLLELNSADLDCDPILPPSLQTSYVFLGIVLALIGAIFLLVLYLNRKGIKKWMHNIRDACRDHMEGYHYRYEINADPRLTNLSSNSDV
# UniProt Q9Y5L0: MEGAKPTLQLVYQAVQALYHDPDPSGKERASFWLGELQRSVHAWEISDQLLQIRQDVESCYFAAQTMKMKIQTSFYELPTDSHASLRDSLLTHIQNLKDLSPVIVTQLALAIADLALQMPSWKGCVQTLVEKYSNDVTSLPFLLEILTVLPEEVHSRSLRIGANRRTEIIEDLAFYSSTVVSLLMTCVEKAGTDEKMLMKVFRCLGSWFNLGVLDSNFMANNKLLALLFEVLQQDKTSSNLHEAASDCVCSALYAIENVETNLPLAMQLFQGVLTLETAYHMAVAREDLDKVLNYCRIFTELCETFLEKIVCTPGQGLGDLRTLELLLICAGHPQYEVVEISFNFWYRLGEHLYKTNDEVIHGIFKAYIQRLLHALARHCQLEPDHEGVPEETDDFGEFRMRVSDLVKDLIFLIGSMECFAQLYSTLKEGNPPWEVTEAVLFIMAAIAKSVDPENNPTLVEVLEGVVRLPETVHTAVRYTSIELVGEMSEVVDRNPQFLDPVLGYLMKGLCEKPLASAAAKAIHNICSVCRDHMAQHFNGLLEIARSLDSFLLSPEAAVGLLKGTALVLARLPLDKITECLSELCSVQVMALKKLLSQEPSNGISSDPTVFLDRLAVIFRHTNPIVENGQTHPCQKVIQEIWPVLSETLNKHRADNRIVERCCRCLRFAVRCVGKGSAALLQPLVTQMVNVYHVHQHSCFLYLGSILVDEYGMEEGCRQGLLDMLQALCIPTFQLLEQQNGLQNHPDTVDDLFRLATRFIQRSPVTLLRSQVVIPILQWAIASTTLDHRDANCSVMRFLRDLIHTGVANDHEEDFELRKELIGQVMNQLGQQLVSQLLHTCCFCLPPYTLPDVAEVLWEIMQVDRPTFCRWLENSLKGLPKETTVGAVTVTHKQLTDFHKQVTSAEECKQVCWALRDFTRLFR
# UniProt Q9Y3Q3: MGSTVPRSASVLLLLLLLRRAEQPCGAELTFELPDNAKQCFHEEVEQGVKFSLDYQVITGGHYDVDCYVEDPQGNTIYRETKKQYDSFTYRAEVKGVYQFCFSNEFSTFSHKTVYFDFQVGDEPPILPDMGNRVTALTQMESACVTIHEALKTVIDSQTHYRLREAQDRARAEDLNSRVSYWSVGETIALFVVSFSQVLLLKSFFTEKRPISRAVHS
# UniProt Q96MH6: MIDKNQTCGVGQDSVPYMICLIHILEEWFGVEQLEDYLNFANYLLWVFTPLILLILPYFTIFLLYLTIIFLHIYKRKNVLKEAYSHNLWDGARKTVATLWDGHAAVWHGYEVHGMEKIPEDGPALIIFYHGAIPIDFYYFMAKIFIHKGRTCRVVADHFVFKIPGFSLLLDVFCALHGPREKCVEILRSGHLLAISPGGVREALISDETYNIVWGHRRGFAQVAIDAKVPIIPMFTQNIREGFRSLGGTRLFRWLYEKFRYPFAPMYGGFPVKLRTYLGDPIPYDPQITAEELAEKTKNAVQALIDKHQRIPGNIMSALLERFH
# This is one part of the list.
# Compound: COc1ccc(Cn2ccc3ccc(C(=O)NO)cc32)cc1
# Assay: dose-dependent thermal stabilisation call (2D-TPP, DLPTP, 10% FDR) (binary (1 = stabilised)); higher = stabilised by the compound
# Conditions: system: HL-60 intact cells; concentration range 0.04-10 µM
row,Target,dose-dependent thermal stabilisation call
1,TMEM11 (UniProt P17152),inactive: 0
2,TOMM40 (UniProt O96008),inactive: 0
3,TPP2 (UniProt P29144),inactive: 0
4,TMEM222 (UniProt Q9H0R3),inactive: 0
5,TFAP4 (UniProt Q01664),inactive: 0
6,TOR1A (UniProt O14656),inactive: 0
7,THRAP3 (UniProt Q9Y2W1),inactive: 0
8,TMEM141 (UniProt Q96I45),inactive: 0
9,TNPO1 (UniProt Q92973),inactive: 0
10,TBPL1 (UniProt P62380),inactive: 0
11,TIFA (UniProt Q96CG3),inactive: 0
12,TMEM49 (UniProt Q96GC9),inactive: 0
13,TMSL3,inactive: 0
14,TMEM63B (UniProt Q5T3F8),inactive: 0
15,TBP (UniProt P20226),inactive: 0
16,TNFRSF10B (UniProt O14763),inactive: 0
17,TBC1D23 (UniProt Q9NUY8),inactive: 0
18,TBCB (UniProt Q99426),inactive: 0
19,TPMT (UniProt P51580),active: 1

row,Target,dose-dependent thermal stabilisation call
1,TMEM199 (UniProt Q8N511),inactive: 0
2,TFCP2 (UniProt Q12800),inactive: 0
3,TBC1D24 (UniProt Q9ULP9),inactive: 0
4,TMEM168 (UniProt Q9H0V1),inactive: 0
5,TMEM43 (UniProt Q9BTV4),inactive: 0
6,TNPO2 (UniProt O14787),inactive: 0
7,THOC1 (UniProt Q96FV9),inactive: 0
8,TESC (UniProt Q96BS2),inactive: 0
9,TOR1AIP2,inactive: 0
10,TMEM57 (UniProt Q8N5G2),inactive: 0
11,TEX264 (UniProt Q9Y6I9),active: 1
12,TPBG (UniProt Q13641),inactive: 0
13,TPRG1L (UniProt Q5T0D9),inactive: 0
14,TNPO3 (UniProt Q9Y5L0),inactive: 0
15,TMED3 (UniProt Q9Y3Q3),inactive: 0
16,TIA1 (UniProt P31483),inactive: 0
17,TMEM68 (UniProt Q96MH6),inactive: 0
18,TAOK3 (UniProt Q9H2K8),inactive: 0

# Copied from the list:
# In dose-dependent thermal stabilisation call, TPBG (UniProt Q13641) has inactive: 0
# In dose-dependent thermal stabilisation call, TIA1 (UniProt P31483) has inactive: 0
